# Source: the supplement of paper PMC5770031
# Values joined by “and” are separate entries in the source; they are usually repeats but may differ in a detail not shown here. Equal entries are not always repeated. Some of the results follow. Repeats in this data set agree poorly, so a single value says little.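 Flies heterozygous for the ATM8 allele over a balancer chromosome carrying normal ATM were mated with each other on treated food. Parents laid eggs for 5–6 days and the young then developed for about 12 days, so both parents and larvae ate the compound. The read-out is the share of all emerged adults that carry two ATM8 copies, compared with 2% DMSO control vials. The paper called compounds neutral at 10–20% such offspring, harmful below 10%, and helpful above 20%.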 Peptide text beside a SMILES is read from it.
# System: Drosophila melanogaster ATM8 (temperature-sensitive ATM allele)
# Assay: fraction of eclosed F1 progeny that are homozygous ATM8 (rescue of developmental lethality); higher = more rescue of ATM8 developmental lethality; extreme values may be limits of the assay
# Settings: compound concentration applied to food 0.2 mM; 21 °C
row,Structure (SMILES),fraction of eclosed F1 progeny that are homozygous ATM8
1,COC(=O)/C(C)=C\CC12OC(C)(C)C3CC(C=C4C(=O)c5c(c(CCC(C)(C)Cl)c6c(c5OC)C5CC(C)(CCC5=C(C)C)O6)OC431)C2=O (centres undefined),0.189
2,COc1cc2c(cc1OC)C(=O)C(CC1CCN(Cc3ccccc3)CC1)C2 (centres undefined),0.294
3,CCCCC(CC)CN1CN(CC(CC)CCCC)CC(C)(N)C1 (centres undefined),0.102
4,CC(C)CCCC(C)C1CCC2C3CCC4CCCCC4(C)C3CCC12C (centres undefined),0.0227
5,C=CCc1ccc(OC(=O)c2ccccc2)c(OC)c1,0.0408
6,CCN(CC)CCOC(=O)C(c1ccccc1)C1CCCCC1 (centres undefined),0.025
7,COCC1=C(C(=O)OC(C)OC(=O)OC(C)C)N2C(=O)[C@@H](NC(=O)/C(=N\OC)c3csc(N)n3)[C@H]2SC1 (some centres undefined),0
8,COc1cc(Cc2cnc(N)nc2N)cc(OC)c1OC,0.257
9,CS(=O)(=O)c1ccc(C2=C(c3ccccc3)C(=O)OC2)cc1,0.171
10,Oc1ccc(Cl)c2c1CCC2,0
11,Cc1[nH]c(=O)c(C#N)cc1-c1ccncc1,0.069
12,C#C[C@]1(O)CC[C@H]2[C@@H]3CCc4cc(OC5CCCC5)ccc4[C@H]3CC[C@@]21C,0.0851
13,CN(C)CCC=C1c2ccccc2CCc2ccccc21,0.0455
14,Cc1ccnc2c1NC(=O)c1cccnc1N2C1CC1,0.1
15,CC(=O)O[C@@H]1C[C@H]2C(C)(C)C(=O)C=C[C@]2(C)[C@H]2CC[C@]3(C)C(=CC(=O)O[C@H]3c3ccoc3)[C@@]21C,0.0267
16,O=C(Nc1ccccc1)c1ccccc1O,0.087
17,C=C1C(=O)[C@]23[C@H](CC[C@@H]1[C@@H]2O)[C@]12CO[C@@]3(O)[C@H](O)[C@H]1C(C)(C)CC[C@@H]2O,0.119
18,COC(=O)C[C@H]1C(C)(C)C(=O)[C@@H]2CC3=C(CC[C@]4(C)C3=CC(=O)O[C@H]4c3ccoc3)[C@@]1(C)C2=O,0.184
19,COc1cc(/C=C/C(=O)N2CCC=CC2=O)cc(OC)c1OC,0.15
20,COc1ccc(C2C(=O)c3ccccc3C2=O)cc1,0.259

row,Structure (SMILES),fraction of eclosed F1 progeny that are homozygous ATM8
1,Cc1cccc(C)c1NC(=O)C1CCCCN1C (centres undefined),0.2
2,CC(=O)Oc1ccc2c(c1)CC[C@@H]1[C@@H]2CC[C@]2(C)[C@@H](OC(C)=O)CC[C@@H]12,0.161
3,Cc1ncc([N+](=O)[O-])n1CC(O)CCl (centres undefined),0.254
4,COc1cc(OC)c2c(OC)c(-c3ccc4c(c3)OCO4)c(=O)oc2c1,0.32
5,CN1C(C(=O)Nc2ccccn2)=C(O)c2sccc2S1(=O)=O,0.108
6,N#Cc1ccc2[nH]cc(CCCCN3CCN(c4ccc5oc(C(N)=O)cc5c4)CC3)c2c1,0.333
7,N=C(N)N,0.0926 and 0.08
8,C[C@]12CC[C@H]3C(=CCc4cc(O)ccc43)[C@@H]1CCC2=O,0.0385
9,C[C@]12C=CC(=O)C=C1CC[C@@H]1[C@@H]2[C@@H](O)C[C@@]2(C)[C@H]1CC[C@]2(O)C(=O)COP(=O)(O)O,0.304
10,CN1[C@@H](CC(=O)c2ccccc2)CCC[C@H]1C[C@H](O)c1ccccc1,0.143
11,c1ccc2[nH]c(-c3cscn3)nc2c1,0.0698
12,CC1(C)[C@H]2CC[C@]1(CS(=O)(=O)O)C(=O)C2=Cc1ccc(C=C2C(=O)[C@@]3(CS(=O)(=O)O)CC[C@@H]2C3(C)C)cc1,0.0526
13,NC(=O)NC(=O)Cc1ccccc1,0.366
14,COc1ccc(C(=O)c2ccc(C)cc2)c(O)c1,0.222
15,"COC(=O)C[C@H]1C(C)(C)[C@@H](O)[C@@H]2CC3=C4CC(O)O[C@@H](c5ccoc5)[C@]4(C)CCC3[C@@]1(C)C2=O (stereo partly drawn) [3,16-DIDEOXYMEXICANOLIDE-3beta-DIOL]",0.0513
16,CC(C)CC(NC(=O)CN)C(=O)NC(Cc1ccccc1)C(=O)O (stereo not drawn) (H-Gly-Leu-Phe-OH; configuration not given here),0.0652
17,C/C=N/N(C)C=O,0.0667
18,Cn1c(=O)cc(N2CCC[C@@H](N)C2)n(Cc2ccccc2C#N)c1=O,0.0652
19,O=c1c2cc(O)c(O)cc2oc2cc(O)c([C@@H]3O[C@H](CO)[C@@H](O)[C@H](O)[C@H]3O)c(O)c12,0.149
20,C=C1C[C@]23C[C@@]1(O)CC[C@H]2[C@@]12C=C[C@H](O)[C@@](C)(C(=O)O1)[C@H]2[C@@H]3C(=O)O,0.0962

# A different layout for 2 compounds above:
row	Structure (SMILES)	fraction of eclosed F1 progeny that are homozygous ATM8
4	CC(C)CCCC(C)C1CCC2C3CCC4CCCCC4(C)C3CCC12C (centres undefined)	0.0227
17	C=C1C(=O)[C@]23[C@H](CC[C@@H]1[C@@H]2O)[C@]12CO[C@@]3(O)[C@H](O)[C@H]1C(C)(C)CC[C@@H]2O	0.119

# (further entries)

row,Structure (SMILES),fraction of eclosed F1 progeny that are homozygous ATM8
1,Cc1cccc(CN2CCN(C(c3ccccc3)c3ccc(Cl)cc3)CC2)c1 (centres undefined),0.243
2,O=C([O-])[C@H](O)[C@@H](O)[C@H](O)[C@H](O)CO.[Na+],0.0435
3,CCOc1ccc(S(=O)(=O)O)c2cccnc12,0.093
4,O=C(O)CCC(=O)Nc1ccc(S(=O)(=O)Nc2nccs2)cc1,0.12
5,COc1cnc(NS(=O)(=O)c2ccc(N)cc2)nc1,0.205
6,O=NN(CCCl)C(=O)NC1CCCCC1,0
7,COc1ccccc1O,0.22
8,CCOC(=O)C1=C[C@]2(CC)CCCN3CCc4c(n1c1ccccc41)[C@@H]32,0.116
9,CC(=O)OCC(=O)[C@@]1(O)CC[C@H]2[C@@H]3C[C@H](C)C4=CC(=O)C=C[C@]4(C)[C@H]3[C@@H](O)C[C@@]21C [6alpha-METHYLPREDNISOLONE ACETATE],0.0488
10,CC(=O)OC1CCC2(C)C3=C(CC[C@H]2C1(C)C)[C@@]1(C)CC[C@@H]([C@@H](C)CCC=C(C)C)[C@]1(C)CC3 (some centres undefined),0.146
11,CC(=O)OCC1=C(C(=O)O)N2C(=O)[C@@H](NC(=O)CSc3ccncc3)[C@H]2SC1,0.025
12,O=C1OC2(c3ccc(O)cc3Oc3cc(O)ccc32)c2ccccc21,0.186
13,CC[C@H]1OC(=O)[C@H](C)C(=O)[C@H](C)[C@@H](O[C@@H]2O[C@H](C)C[C@H](N(C)C)[C@H]2O)[C@](C)(OC)C[C@@H](C)C(=O)[C@H](C)[C@H]2N(CCCCn3cnc(-c4cccnc4)c3)C(=O)O[C@]12C,0.294
14,CCCCOc1cc(C(=O)NCCN(CC)CC)c2ccccc2n1,0.0488
15,COc1cc(OC)c2c(c1)OC(c1ccccc1)CC2=O (centres undefined),0.0714
16,O=C1CCc2cc(OCCCCc3nnnn3C3CCCCC3)ccc2N1,0.4
17,CCS(=O)(=O)CCn1c([N+](=O)[O-])cnc1C,0.268
18,CCC1=C(C)CN(C(=O)NCCc2ccc(S(=O)(=O)NC(=O)N[C@H]3CC[C@H](C)CC3)cc2)C1=O,0.279
19,C[C@@]12C[C@@]3(O)O[C@@H](O1)[C@]1(COC(=O)c4ccccc4)[C@H]3C[C@@]12O[C@@H]1O[C@H](CO)[C@@H](O)[C@H](O)[C@H]1O,0.257
